Laboratory results published in PMC10313047, “During heat stress in Myxococcus xanthus, the CdbS PilZ domain protein, in concert with two PilZ-DnaK chaperones, perturbs chromosome organization and accelerates cell death” (PLOS Genetics, 2023).
Results are given in words; binding and its absence hold for the method and conditions named. Tags and fused reporters may be left off the sequences shown.

Target: T1, DnaB (BACTH fusions) (Myxococcus xanthus) (UniProt Q1D285)
T1 sequence: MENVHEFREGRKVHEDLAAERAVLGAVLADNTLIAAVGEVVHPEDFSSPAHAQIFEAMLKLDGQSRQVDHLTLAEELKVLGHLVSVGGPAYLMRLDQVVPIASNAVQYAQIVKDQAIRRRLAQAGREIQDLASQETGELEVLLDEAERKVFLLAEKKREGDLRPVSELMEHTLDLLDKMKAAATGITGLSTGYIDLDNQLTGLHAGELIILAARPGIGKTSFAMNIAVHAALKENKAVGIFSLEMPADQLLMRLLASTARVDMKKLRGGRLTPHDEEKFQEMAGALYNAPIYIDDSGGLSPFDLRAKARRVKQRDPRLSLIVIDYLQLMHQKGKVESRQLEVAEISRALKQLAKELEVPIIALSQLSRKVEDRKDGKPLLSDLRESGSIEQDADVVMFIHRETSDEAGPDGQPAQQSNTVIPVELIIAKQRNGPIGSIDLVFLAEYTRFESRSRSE
Assay: two-hybrid; BACTH (bacterial adenylate cyclase-based two-hybrid); proteins fused to T25 and T18; blue colonies: interaction, white: none; two biological replicates

“CdbS (BACTH fusions) (Myxococcus xanthus)” was tested, and the binding was “no binding”.
